Assay results as given in paper PMC2956695.
These are yes or no findings as the source states them, for the method shown. In cells and extracts the contact can be indirect. Here binding means that the protein was enriched with, or labelled near, the bait; the list need not be complete. Sequences can lack the tags named with a protein. Blank lines part the entries; values can stand above or below the binder they belong to.

Molecular target: T1, Slm9-3XFLAG (S. pombe) (UniProt O74309)
T1 sequence: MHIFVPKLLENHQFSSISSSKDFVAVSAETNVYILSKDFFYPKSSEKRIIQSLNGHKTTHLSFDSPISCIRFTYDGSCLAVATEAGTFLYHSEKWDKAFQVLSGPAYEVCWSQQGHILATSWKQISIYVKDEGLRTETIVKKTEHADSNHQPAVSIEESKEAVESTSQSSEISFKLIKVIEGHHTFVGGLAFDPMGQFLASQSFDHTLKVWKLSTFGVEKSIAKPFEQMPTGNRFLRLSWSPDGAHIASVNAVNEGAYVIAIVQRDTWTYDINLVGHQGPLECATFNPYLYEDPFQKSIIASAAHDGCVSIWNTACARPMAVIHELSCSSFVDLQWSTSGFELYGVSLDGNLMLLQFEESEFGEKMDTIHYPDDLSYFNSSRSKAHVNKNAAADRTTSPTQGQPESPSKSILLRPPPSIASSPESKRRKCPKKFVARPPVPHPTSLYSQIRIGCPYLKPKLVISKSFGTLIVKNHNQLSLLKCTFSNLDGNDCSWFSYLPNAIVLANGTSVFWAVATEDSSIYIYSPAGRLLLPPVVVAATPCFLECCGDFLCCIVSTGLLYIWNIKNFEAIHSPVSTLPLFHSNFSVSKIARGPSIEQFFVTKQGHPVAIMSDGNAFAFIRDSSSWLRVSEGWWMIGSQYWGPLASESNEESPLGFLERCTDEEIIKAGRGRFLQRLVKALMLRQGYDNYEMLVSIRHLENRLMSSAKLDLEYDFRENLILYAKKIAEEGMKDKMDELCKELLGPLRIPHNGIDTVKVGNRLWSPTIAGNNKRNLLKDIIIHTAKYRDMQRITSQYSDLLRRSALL
Test: affinity purification with mass spectrometry; extracts from 5 g of cells expressing Slm9-FLAG, Dynabeads coupled to anti-FLAG M2 antibody for 15 mins, Benzonase treatment, on-bead tryptic digestion, LC-MS/MS; listed proteins found in at least two independent purifications and absent from four control purifications from untagged cells

B1: Cct4, chaperonin-containing T-complex delta subunit (protein, UniProt P50999 1-527)
chain: MSKAATVPVAFQDREKPQEVRLSNIMAARSVADAIRTSLGPKGMDKMIQTGKGEVILTNDGATILKHLSVLHPAAKMLVDLSAAQDVEAGDGTTSVVILAGSMLACAEKLLKKGIHPTVIAESFQRAAGFTVDCMKENALAIELSDRESLLRAATTSLNSKIVSQYSNLLAPIAVDAVLKVIDPRVATNVDLKDIRIVKKLGGIIDDTELIPGLALTQTAVKSAGGPTRIEKANIALIQFQLSPPKPDMENQVVVNDYRQMDKILKEERQYLLNMCKKIKKAGANVILIQKSILRDAVNDLALHFLAKLKIMVIKDIERDEVEFICKSTGCKPIADIESFAEDKLGHADLVEETSSSGEKIVKFSGVKNAGKTVSILCRGANLLTLEEAERSLHDALCVIRCLVKQRALIAGGGSPEIEAAQRLLEHARQLEGREAICIRAFSEALEIIPVTLAENAGLNAIQVVTELRSRHANGEKTAGINVRKGIVTNILEENVLQPLLVNISAIQLAAETTKMIMKIDDITLAR
binding: binds

B4: Cts1, CTP synthase (protein, UniProt O42644 1-600)
chain: MKYVLVSGGVISGIGKGVIASSTGLLLKTLGLKVTSIKIDPYMNIDAGTMSPLEHGEVFVLNDGGEVDLDLGNYERYLNVTLTHDNNITTGKVYSNVIQKERRGDYLGKTVQIVPHVTNEIQDWVERVARIPVDQSGEEPDVCIVELGGTVGDIESAAFVEAMRQFQFRVGHENFVSIHVSLVPVINGEQKTKPTQQAIRDLRSLGITPDLIACRCKQPLEKSVIDKISLFCHVGPEQVLAVHDVSSTYHVPQLLEDKLLEYLKIRFALDKISVSRELALAGENMWSSWKHLTQGYDHLFKKVTIVLVGKYTHLQDSYISVIKALEHSAMRCGRKLDLQWVEASHLEASTNTSDPLSYHKAWHLVCSANGILVPGGFGSRGVEGMIAAAKWARENNTPYLGICLGMQVAVIEFARSVCGIEGAFSEEFDKECENNVVVYMPEIDKDKLGGTMRLGLRPTFFQPNSEWSKLRKLHKMVDEVLERHRHRYEINPAFVSRLEQGGISFIGKDERGERMEIIEKRDHPYFVGVQYHPEYLSKPLKPSPPIFGLVAASAGLLDEFIQSGEEVEWSNFSHFNAESALADMNDSVEVTEEATVVTIS
binding: binds

B5: Pgk1, phosphoglycerate kinase (protein, UniProt O60101 1-414)
chain: MSLSTKLAITDVDLKGKNVLIRVDFNVPLDGDRITNNARIVGALPTIKYALEQQPKAVILMSHLGRPNGARVAKYSLKPVAAELSKLLGKPVKFLDDCVGPEVEKACKEAKGGEVILLENLRFHIEEEGSAKVDGKKVKADASAVEAFRKSLTSLGDIFVNDAFGTAHRAHSSMVGVDLPRVSGFLMKKELDYFSKALENPARPFLAILGGAKVADKIQLIDNLLDKVNRLIICGGMAFTFLKVLNGMKIGDSLFDEAGSKNVESMMAKAKKNNVEVFLPVDFVTADKFDKDAKVGSATAEEGIPDGWMGLDCGPKSSAKFAEVITTSKTIVWNGPAGVFEFDNFAKGTKSMLDACVKTCEAGNVVIVGGGDTATVAKKYGKEDALSHVSTGGGASLELLEGKALPGVVALSSK
binding: binds

B6: Hip4 (SPBC947.08c), Hpc2-related protein (protein, UniProt O43083 1-338)
chain: MSLLSGDQRIICLEIPLQGKENVHINFAKEVEKLYGPSVQENSKKNDLSDSADSEGESTHVDEQQAANGAADGTQTIKKKKRKRRYADEYYDRTDPFIDDAELYIEEKAAATKDGFFVFSGPLVAEGDTVKIERSKKTKKKKKTSLSNATHPAPAVSAVVASADASFDDSRDIESEDEQPLRTLSIEMAAKNALKEAKRENAKVPKDVSKKEAKTTKSKEKATKKTSSSVPKQSTGENTKKAVKLETPLTSTPPIPPLSEPKHSPATVNEHISPPSALTNPSTEELKPSTSLPIDQGNASVVSKPTQQVSIVLSQNASLPVDEHQAEPEKSIPTSSIP
binding: binds

B10: Rpt1, 19S proteasome regulatory subunit (protein, UniProt O42931 1-438)
chain: MPPKEDWEKYQKPVDTEEENDKNPPPLDEGDIELLKSYATGPYARELAAIKEDTEAVLKRINDTVGIKESDTGLAPISFWDVAADRQRMSEEQPLQVARCTKIIENEQSAEKNAYVINLKQIAKFVVSLGERVSPTDIEEGMRVGCDRNKYAIQLPLPPKIDPSVTMMQVEEKPDVTYGDVGGCKEQIERLREVVELPLLSPERFVKLGIDPPKGIMLYGPPGTGKTLCARAVANRTDATFIRVIGSELVQKYVGEGARMVRELFEMARTKKACIIFFDEIDAIGGARFDDGAGGDNEVQRTMLELITQLDGFDPRGNIKVLFATNRPNTLDEALMRPGRIDRKVEFGLPDLEGRAHILRIHAKSMAIDKDIRWELIARLCPSQTGAELRSVCTEAGMFAIRARRRVATEKDFLDAVQKVVKGNQKFSSTADYMNMSS
binding: binds

Second part, the binder after the results:

binding: binds
B2: Rpt4, 19S proteasome regulatory subunit (protein, UniProt O74445 1-388)
chain: MSERDTALEKYKSYLLQHREWDSKLKDLRFGNRDLVKKYDKTEDDIKSLQSVGQIIGEVLKQLDSERFIVKASSGPRYVVGCRNNVDQSHLVQGVRVSLDMTTLTIMRILPREVDPLVYNMSIEDPGDISFAGVGGLNEQIRELREVIELPLKNPELFLRVGIKPPKGVLLYGPPGTGKTLLARAVAASLGVNFLKVVSSAIVDKYIGESARIIREMFGYAKEHEPCVIFMDEIDAIGGRRFSEGTSADREIQRTLMELLNQMDGFDYLGQTKIIMATNRPDTLDPALLRPGRLDRKIEIPLPNEVGRMEILKIHLEKVSKQGEIDYEALVKLTDGTNGADLRNVVTEAGFIAIKEDRDYVIQSDLMSAARKVADLKKLEGTIDYQKL

binding: binds
B3: Rpt3, 19S proteasome regulatory subunit (protein, UniProt O74894 1-389)
chain: MNSTEEIDLYNRWKALERQLEMLDLQEGFIKEDCKSLKRELIRAQEEVKRIQSVPLVIGQFLEAIDQNTAIVGSTTGSNYVVRILSTLDRELLKPSASVALQRHSNALVDILPPEADSSISMLRPDERPDVSYADVGGLDVQKQEVREAVELPLTQGDLYRQIGIDPPRGVLLYGPPGTGKTMLVKAVANSTAANFIRVVGSEFVQKYLGEGPRMVRDVFRMARENAPAIIFIDEIDAIATKRFDAQTGADREVQRILIELLTQMDGFDQGANVKVIMATNRADTLDPALLRPGRLDRKIEFPSYRDRRQRRLVFQTITAKMLLSPEVDLDTFIMRPDASSGAQIAAIMQDAGLLAVRKSRGVILQSDIEEAYARAVKPTDMEQFAFYK

binding: binds
B7: Ths1, threonine-tRNA ligase (protein, UniProt P87144 1-703)
chain: MSAAAVKGVQASLDNLSLEIPFIQHRLDLFDKLQKEYKESLATKPREEIDITLPDGKVIKGTSWETTPISIAASISKGLADRVTVAIVNGEPWDLTRPLEASCTLKLCDFNDPEGKRVFWHSSAHILGEATELSFHCHLCIGPPTDEGFFYEMGIDNGRVITNDDYSSIESYAKQAIKQKQPFERLVISKEGLLEMFRYNKYKQYIIQTKIPDGASTTVYRCGPLIDLCTGPHVPHTGRIKSFAVTKNSSSYFLGDAKNDSLQRVYGISFPDNKQMQEYKTFLAEAAKRDHRKIGRDQELFFFNEISPGSCFFLPHGARIYNTLLKYMRYQYSKRGYQEVITPNMYNVNLWKTSGHWNNYSENMFSFDIEKEKYALKPMNCPGHCVMFKSRDRSYRDLPWRVADFGVLHRNEFSGALSGLTRVRRFQQDDAHIFCTPDQVRSEIEGCFDFLKEVYGTFGFTFHLELSTRPEEKYLGDLATWDKAEAQLKAALDASGYKWELNAGDGAFYGPKIDITVFDALKRQHQCATIQLDFQLPERFQLEFHAPASAEEAKESGNNNKYTRPVMVHRAILGSLERMIAILTEHYAGKWPFWMSPRQVCIIPVSAAAYNYADKVHNILSEADIFVDTDKSDNTLPKKIRNAQLAQYNFIFVVGAEEESTNSVNVRNRDDPKKQSKGSTVAVEEVVKKLLKLKESKSLINDL

binding: binds
B8: SPCC1827.06c, aspartate semialdehyde dehydrogenase (protein, UniProt P78780 1-357)
chain: MAIKKVGILGATGTVGQRFITLLSDHPEFKIAVLGASARSAGKPYAVATKWKQSIAMPKEISQMSVKACDPKEFSECDIVFSGLDADFAGEIEKSFRDANLVIVSNAKNYRREPTVPLVVPTVNTDHLDVIKYQRQENKLDRGCIITNSNCSTAAVVVPLKALQDAFGPIAQTNVVSMQAISGAGYPGVSSLDILDNIVPFIGGEEEKIEWETRKILGSVNSTISGYELTDNVVSAQCNRVPVIDGHLMCISVKFAKTSPTPDQVREVLANYVSEPQKLGCYSAPKQAIYVFDDSTPDRPQPRLDRNNENGYAVSVGRIRSDSIFDIKFVSLVHNTVLGAAGAGILNAEVAVKKGLM

binding: binds
B9: SPAC17A5.15c, glutamate-tRNA ligase (protein, UniProt O13775 1-716)
chain: MSVSVALKAKPIAYGAVACANYVNLSGAGSISVKYEDVALLDKQNKESNVSIQLNGSDSPVFGSKLALQTFSQVYPKLFIGENDRSLVESWVETASALAGNHNFLELSSLLAQLDDHLIMRSLFVGYSLTSADFSIWGALKSNNMAAGAVRTGQYFNLARWYKFMDSQNAVSVTMEEFTKAVNISKKQKSSGPNYEIGLPDAIDGKVVTRFPPEPSGYLHIGHAKAALLNQYFANKYHGKLIVRFDDTNPSKENSEFQDAILEDVALLGIKPDVVTYTSDYLDTIHQYCVDMIKSGQAYADDTDVETMRHERTEGIPSKHRDRPIEESLEILSEMDKGSDVGLKNCIRAKISYENPNKAMRDPVIYRCNLLPHHRTGTKYRAYPTYDFACPIVDSLEGVTHALRTTEYRDRNPLYQWMIKAMNLRKIHVWEFSRMNFVRTLLSKRKLTEIVDHGLVWGWDDPRFPTVRGVRRRGMTIEALQQYIVSQGPSKNILTLDWTSFWATNKKIIDPVAPRHTAVESGDVVKATIVNGPAAPYAEDRPRHKKNPELGNKKSIFANEILIEQADAQSFKQDEEVTLMDWGNAYVREINRDASGKVTSLKLELHLDGDFKKTEKKVTWLADTEDKTPVDLVDFDYLITKDKLEEGENYKDFLTPQTEFHSPVFADVGIKNLKKGDIIQVERKGYYIVDVPFDGTQAVLFNIPDGKTVNRYGVKN
